{"source": "PubChem BioAssay AID1159578 (Peter MacCallum Cancer Centre, 2015)", "test": "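Genome-wide hunt for genes controlling movement of lymphatic endothelial cells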 (primary screen)", "system": "human lymphatic endothelial cells", "reagents": "siRNA pool against human genes, 40 nM", "time to read-out": "48 h after transfection", "detection": "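High-content imaging of dye-stained cells in a scratch assay measures filled wound area and nuclei per well; duplicate means given as ratio to mock and robust z-score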", "scale": "migration robust z-score: higher = faster migration into the scratch; nuclei per well: higher = more cells in the well", "hit rule": "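Migration changed when robust z exceeds 2 or falls below -2 and mean nuclei number is at least 3300; otherwise not called changed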", "calls": "active = migration changed; inactive = no migration change, or too few cells", "note": "Shown is a random part of about 18,000 reagents. In the full data, about 1,030 (5.7%) were called active. 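Inactive calls also include pools with fewer than 3300 nuclei, whose migration was not assessed.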 Raw values are not corrected between plates. Not all columns of the deposit are shown. Reagent sequences are not shown."}
{"gene knocked down":"JDP2 (Jun dimerization protein 2)","migration robust z-score":0.92,"migration class with cell-count check":"migration z between -2 and 2; enough cells","nuclei per well, duplicate mean":5897,"call":"inactive"}
{"gene knocked down":"AGBL2 (AGBL carboxypeptidase 2)","migration robust z-score":-0.44,"migration class with cell-count check":"migration z between -2 and 2; enough cells","nuclei per well, duplicate mean":6103,"call":"inactive"}
{"gene knocked down":"RING1 (ring finger protein 1)","migration robust z-score":-0.75,"migration class with cell-count check":"migration z between -2 and 2; enough cells","nuclei per well, duplicate mean":4744,"call":"inactive"}
{"gene knocked down":"RBFA (ribosome binding factor A)","migration robust z-score":0.15,"migration class with cell-count check":"migration z between -2 and 2; enough cells","nuclei per well, duplicate mean":4231,"call":"inactive"}
{"gene knocked down":"SULT6B1 (sulfotransferase family 6B member 1)","migration robust z-score":-0.6,"migration class with cell-count check":"migration z between -2 and 2; enough cells","nuclei per well, duplicate mean":6128,"call":"inactive"}
{"gene knocked down":"TRAPPC6A (trafficking protein particle complex subunit 6A)","migration robust z-score":-0.13,"migration class with cell-count check":"migration z between -2 and 2; enough cells","nuclei per well, duplicate mean":6569,"call":"inactive"}
{"gene knocked down":"RERE (arginine-glutamic acid dipeptide repeats)","migration robust z-score":-0.62,"migration class with cell-count check":"migration z between -2 and 2; enough cells","nuclei per well, duplicate mean":4736,"call":"inactive"}
{"gene knocked down":"MSC (musculin)","migration robust z-score":-0.13,"migration class with cell-count check":"migration z between -2 and 2; enough cells","nuclei per well, duplicate mean":5403,"call":"inactive"}
{"gene knocked down":"MT1A (metallothionein 1A)","migration robust z-score":0.88,"migration class with cell-count check":"migration z between -2 and 2; enough cells","nuclei per well, duplicate mean":5692,"call":"inactive"}
{"gene knocked down":"SULT2B1 (sulfotransferase family 2B member 1)","migration robust z-score":-0.47,"migration class with cell-count check":"migration z between -2 and 2; enough cells","nuclei per well, duplicate mean":5139,"call":"inactive"}
{"gene knocked down":"SLC16A10","migration robust z-score":-0.88,"migration class with cell-count check":"migration z between -2 and 2; enough cells","nuclei per well, duplicate mean":4480,"call":"inactive"}

Continued; the last 2 above are carried over.
{"gene knocked down":"SULT2B1 (sulfotransferase family 2B member 1)","migration robust z-score":-0.47,"migration class with cell-count check":"migration z between -2 and 2; enough cells","nuclei per well, duplicate mean":5139,"call":"inactive"}
{"gene knocked down":"SLC16A10","migration robust z-score":-0.88,"migration class with cell-count check":"migration z between -2 and 2; enough cells","nuclei per well, duplicate mean":4480,"call":"inactive"}
{"gene knocked down":"TXNDC17 (thioredoxin domain containing 17)","migration robust z-score":1.06,"migration class with cell-count check":"migration z between -2 and 2; enough cells","nuclei per well, duplicate mean":6738,"call":"inactive"}
{"gene knocked down":"RHBDL3 (rhomboid like 3)","migration robust z-score":0.11,"migration class with cell-count check":"migration z between -2 and 2; enough cells","nuclei per well, duplicate mean":5212,"call":"inactive"}
{"gene knocked down":"CPXM1 (carboxypeptidase X, M14 family member 1)","migration robust z-score":0.08,"migration class with cell-count check":"migration z between -2 and 2; enough cells","nuclei per well, duplicate mean":6034,"call":"inactive"}
{"gene knocked down":"ZC3HAV1 (zinc finger CCCH-type containing, antiviral 1)","migration robust z-score":0.18,"migration class with cell-count check":"migration z between -2 and 2; enough cells","nuclei per well, duplicate mean":5656,"call":"inactive"}
{"gene knocked down":"PSMA6 (proteasome 20S subunit alpha 6)","migration robust z-score":-0.42,"migration class with cell-count check":"migration z between -2 and 2; enough cells","nuclei per well, duplicate mean":5244,"call":"inactive"}
{"gene knocked down":"EVI2B (ecotropic viral integration site 2B)","migration robust z-score":0.32,"migration class with cell-count check":"migration z between -2 and 2; enough cells","nuclei per well, duplicate mean":5445,"call":"inactive"}
{"gene knocked down":"PSG8 (pregnancy specific beta-1-glycoprotein 8)","migration robust z-score":0.11,"migration class with cell-count check":"migration z between -2 and 2; enough cells","nuclei per well, duplicate mean":5496,"call":"inactive"}
{"gene knocked down":"EXOSC9 (exosome component 9)","migration robust z-score":-0.31,"migration class with cell-count check":"migration z between -2 and 2; enough cells","nuclei per well, duplicate mean":4956,"call":"inactive"}
{"gene knocked down":"PRAMEF16 (retired record)","migration robust z-score":2.31,"migration class with cell-count check":"migration z above 2; enough cells","nuclei per well, duplicate mean":5094,"call":"active"}
{"gene knocked down":"ASIC4 (acid sensing ion channel subunit family member 4)","migration robust z-score":-0.67,"migration class with cell-count check":"migration z between -2 and 2; enough cells","nuclei per well, duplicate mean":5204,"call":"inactive"}
{"gene knocked down":"EMC8 (ER membrane protein complex subunit 8)","migration robust z-score":1.19,"migration class with cell-count check":"migration z between -2 and 2; enough cells","nuclei per well, duplicate mean":5176,"call":"inactive"}
{"gene knocked down":"MARCHF9 (membrane associated ring-CH-type finger 9)","migration robust z-score":-0.54,"migration class with cell-count check":"migration z between -2 and 2; enough cells","nuclei per well, duplicate mean":5584,"call":"inactive"}
{"gene knocked down":"PEMT (phosphatidylethanolamine N-methyltransferase)","migration robust z-score":-0.34,"migration class with cell-count check":"migration z between -2 and 2; enough cells","nuclei per well, duplicate mean":5842,"call":"inactive"}
{"gene knocked down":"CHST11 (carbohydrate sulfotransferase 11)","migration robust z-score":0.17,"migration class with cell-count check":"migration z between -2 and 2; enough cells","nuclei per well, duplicate mean":5681,"call":"inactive"}
{"gene knocked down":"POLR2L (RNA polymerase II, I and III subunit L)","migration robust z-score":-0.29,"migration class with cell-count check":"migration z between -2 and 2; enough cells","nuclei per well, duplicate mean":4805,"call":"inactive"}
{"gene knocked down":"BCLAF3 (BCLAF1 and THRAP3 family member 3)","migration robust z-score":-1.03,"migration class with cell-count check":"migration z between -2 and 2; enough cells","nuclei per well, duplicate mean":5583,"call":"inactive"}
